# Measured values published in the supplement of paper PMC12067093, “Discovery and optimisation of a covalent ligand for TRIM25 and its application to targeted protein ubiquitination” (Chemical Science, 2025).
# By UniProt entry, the sequences of proteins in these tests, tags left out. Where a name states a change or a piece, a line headed by the entry shows the natural chain unless it says otherwise.
# UniProt Q9UK39: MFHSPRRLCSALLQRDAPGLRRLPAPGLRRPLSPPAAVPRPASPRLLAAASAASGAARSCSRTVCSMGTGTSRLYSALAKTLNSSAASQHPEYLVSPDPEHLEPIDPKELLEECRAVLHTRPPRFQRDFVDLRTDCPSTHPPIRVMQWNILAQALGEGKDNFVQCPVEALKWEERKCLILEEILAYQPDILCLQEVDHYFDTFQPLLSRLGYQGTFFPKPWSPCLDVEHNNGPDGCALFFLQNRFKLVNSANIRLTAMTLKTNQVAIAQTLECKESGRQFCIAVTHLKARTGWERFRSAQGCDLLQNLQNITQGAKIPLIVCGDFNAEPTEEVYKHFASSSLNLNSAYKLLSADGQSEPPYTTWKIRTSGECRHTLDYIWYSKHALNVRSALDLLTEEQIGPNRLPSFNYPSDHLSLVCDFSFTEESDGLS
# UniProt Q9Y639: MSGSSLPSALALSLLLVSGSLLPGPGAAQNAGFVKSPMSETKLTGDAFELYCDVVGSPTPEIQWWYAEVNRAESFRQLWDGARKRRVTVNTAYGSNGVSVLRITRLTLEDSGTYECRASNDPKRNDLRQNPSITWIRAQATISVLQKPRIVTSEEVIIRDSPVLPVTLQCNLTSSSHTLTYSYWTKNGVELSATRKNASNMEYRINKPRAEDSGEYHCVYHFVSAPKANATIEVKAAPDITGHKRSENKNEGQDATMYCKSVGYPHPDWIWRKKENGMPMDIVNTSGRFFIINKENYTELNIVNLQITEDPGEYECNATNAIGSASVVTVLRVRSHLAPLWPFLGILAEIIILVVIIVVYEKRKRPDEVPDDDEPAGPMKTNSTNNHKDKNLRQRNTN
# UniProt Q96T66: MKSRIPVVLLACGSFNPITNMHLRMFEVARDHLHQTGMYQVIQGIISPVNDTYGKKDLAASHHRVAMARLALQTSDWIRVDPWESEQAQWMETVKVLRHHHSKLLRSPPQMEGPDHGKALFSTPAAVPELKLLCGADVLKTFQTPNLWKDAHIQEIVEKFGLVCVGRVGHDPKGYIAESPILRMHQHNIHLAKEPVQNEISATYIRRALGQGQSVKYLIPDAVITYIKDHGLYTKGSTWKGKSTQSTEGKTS
# UniProt Q96L73: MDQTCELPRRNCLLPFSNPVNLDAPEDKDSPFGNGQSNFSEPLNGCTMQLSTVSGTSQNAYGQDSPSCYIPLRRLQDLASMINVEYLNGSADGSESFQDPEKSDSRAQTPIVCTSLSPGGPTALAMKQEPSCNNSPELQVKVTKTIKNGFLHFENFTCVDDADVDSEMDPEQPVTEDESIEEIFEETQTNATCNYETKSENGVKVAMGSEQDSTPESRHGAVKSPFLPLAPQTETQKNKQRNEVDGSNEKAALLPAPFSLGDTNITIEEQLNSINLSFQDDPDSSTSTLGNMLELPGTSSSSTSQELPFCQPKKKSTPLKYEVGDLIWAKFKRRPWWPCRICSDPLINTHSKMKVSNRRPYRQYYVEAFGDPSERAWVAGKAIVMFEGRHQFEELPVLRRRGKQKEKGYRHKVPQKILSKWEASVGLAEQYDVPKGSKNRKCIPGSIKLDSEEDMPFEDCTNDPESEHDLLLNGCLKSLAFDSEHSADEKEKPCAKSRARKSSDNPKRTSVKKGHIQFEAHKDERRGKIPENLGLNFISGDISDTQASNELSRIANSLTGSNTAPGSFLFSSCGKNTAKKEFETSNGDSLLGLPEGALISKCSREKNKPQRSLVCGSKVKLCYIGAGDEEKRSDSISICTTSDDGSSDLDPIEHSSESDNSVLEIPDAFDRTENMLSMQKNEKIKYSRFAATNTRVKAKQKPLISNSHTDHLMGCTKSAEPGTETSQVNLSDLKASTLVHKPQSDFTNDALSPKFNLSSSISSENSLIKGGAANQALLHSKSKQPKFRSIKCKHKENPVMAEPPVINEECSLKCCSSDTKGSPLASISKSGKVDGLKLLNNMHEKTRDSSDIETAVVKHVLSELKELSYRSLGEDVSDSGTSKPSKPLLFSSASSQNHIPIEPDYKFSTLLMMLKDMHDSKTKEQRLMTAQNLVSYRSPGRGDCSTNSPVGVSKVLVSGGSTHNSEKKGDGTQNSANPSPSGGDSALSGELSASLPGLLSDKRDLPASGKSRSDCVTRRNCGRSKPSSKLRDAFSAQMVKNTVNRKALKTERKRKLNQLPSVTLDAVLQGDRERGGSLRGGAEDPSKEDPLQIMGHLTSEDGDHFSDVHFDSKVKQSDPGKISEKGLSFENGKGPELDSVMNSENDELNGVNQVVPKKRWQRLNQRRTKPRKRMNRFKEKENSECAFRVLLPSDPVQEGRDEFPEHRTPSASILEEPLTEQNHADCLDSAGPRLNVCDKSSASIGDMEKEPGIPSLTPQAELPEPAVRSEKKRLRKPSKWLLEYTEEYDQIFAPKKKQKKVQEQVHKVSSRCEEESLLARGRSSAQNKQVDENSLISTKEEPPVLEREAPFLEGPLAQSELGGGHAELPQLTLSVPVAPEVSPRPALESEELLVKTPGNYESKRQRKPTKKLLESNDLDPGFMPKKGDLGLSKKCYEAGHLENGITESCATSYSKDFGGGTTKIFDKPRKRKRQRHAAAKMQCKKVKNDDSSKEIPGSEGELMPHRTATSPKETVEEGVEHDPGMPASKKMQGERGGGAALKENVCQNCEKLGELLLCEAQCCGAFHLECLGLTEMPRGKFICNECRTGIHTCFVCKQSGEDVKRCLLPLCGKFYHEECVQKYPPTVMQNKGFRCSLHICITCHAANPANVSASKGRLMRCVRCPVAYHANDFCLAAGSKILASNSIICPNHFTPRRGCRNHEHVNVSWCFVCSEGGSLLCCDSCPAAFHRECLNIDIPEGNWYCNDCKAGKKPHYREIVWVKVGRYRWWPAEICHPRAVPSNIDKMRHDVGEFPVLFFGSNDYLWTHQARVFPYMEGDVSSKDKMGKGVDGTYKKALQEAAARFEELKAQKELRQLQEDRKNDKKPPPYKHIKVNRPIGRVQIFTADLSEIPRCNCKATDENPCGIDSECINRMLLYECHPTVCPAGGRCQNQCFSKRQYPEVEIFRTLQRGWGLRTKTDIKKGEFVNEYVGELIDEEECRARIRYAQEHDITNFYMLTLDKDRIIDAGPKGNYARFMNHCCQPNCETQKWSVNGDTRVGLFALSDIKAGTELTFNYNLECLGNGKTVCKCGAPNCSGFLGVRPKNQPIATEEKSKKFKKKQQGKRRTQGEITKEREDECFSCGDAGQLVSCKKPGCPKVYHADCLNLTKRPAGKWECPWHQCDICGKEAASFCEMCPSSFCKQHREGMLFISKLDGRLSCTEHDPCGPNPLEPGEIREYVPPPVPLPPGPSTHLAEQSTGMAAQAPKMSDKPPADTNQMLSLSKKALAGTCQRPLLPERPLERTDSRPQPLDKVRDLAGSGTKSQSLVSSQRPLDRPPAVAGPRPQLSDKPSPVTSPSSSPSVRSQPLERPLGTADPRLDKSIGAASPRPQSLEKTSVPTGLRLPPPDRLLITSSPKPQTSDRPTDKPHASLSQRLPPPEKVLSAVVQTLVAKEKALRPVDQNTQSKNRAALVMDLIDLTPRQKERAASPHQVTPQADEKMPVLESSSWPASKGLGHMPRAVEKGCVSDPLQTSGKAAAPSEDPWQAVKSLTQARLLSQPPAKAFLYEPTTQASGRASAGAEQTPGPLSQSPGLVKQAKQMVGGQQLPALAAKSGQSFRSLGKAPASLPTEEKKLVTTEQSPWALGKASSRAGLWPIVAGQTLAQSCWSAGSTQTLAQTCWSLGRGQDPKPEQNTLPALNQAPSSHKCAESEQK
# UniProt Q86UT6, whole entry, looked up: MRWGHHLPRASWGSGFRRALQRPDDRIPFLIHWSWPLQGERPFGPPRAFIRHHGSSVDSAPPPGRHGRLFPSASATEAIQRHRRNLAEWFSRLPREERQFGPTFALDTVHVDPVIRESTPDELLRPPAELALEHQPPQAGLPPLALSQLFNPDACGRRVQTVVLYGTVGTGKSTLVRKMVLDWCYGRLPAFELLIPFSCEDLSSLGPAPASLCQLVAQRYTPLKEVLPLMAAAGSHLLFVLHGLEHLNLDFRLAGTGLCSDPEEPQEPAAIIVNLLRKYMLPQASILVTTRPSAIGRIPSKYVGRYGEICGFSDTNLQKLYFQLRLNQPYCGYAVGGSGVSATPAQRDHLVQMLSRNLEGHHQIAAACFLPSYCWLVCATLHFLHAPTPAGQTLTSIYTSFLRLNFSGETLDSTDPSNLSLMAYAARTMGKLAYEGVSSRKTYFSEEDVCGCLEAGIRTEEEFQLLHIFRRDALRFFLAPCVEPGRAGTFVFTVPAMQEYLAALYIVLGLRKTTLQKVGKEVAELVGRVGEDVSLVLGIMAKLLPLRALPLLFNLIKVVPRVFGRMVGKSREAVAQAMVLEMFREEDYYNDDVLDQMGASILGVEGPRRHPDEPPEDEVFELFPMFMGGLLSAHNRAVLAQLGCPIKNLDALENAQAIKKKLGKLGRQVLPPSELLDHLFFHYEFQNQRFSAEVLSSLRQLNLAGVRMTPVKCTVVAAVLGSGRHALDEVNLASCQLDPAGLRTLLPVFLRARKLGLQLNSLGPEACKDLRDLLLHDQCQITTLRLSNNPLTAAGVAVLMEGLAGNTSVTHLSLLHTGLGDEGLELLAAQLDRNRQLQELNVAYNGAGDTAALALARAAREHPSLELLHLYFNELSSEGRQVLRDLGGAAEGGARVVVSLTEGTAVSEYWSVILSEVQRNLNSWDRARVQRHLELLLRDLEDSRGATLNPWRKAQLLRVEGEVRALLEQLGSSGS
# UniProt Q9NPE3: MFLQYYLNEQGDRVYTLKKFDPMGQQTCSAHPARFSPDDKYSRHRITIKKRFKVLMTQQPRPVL
# UniProt O96028: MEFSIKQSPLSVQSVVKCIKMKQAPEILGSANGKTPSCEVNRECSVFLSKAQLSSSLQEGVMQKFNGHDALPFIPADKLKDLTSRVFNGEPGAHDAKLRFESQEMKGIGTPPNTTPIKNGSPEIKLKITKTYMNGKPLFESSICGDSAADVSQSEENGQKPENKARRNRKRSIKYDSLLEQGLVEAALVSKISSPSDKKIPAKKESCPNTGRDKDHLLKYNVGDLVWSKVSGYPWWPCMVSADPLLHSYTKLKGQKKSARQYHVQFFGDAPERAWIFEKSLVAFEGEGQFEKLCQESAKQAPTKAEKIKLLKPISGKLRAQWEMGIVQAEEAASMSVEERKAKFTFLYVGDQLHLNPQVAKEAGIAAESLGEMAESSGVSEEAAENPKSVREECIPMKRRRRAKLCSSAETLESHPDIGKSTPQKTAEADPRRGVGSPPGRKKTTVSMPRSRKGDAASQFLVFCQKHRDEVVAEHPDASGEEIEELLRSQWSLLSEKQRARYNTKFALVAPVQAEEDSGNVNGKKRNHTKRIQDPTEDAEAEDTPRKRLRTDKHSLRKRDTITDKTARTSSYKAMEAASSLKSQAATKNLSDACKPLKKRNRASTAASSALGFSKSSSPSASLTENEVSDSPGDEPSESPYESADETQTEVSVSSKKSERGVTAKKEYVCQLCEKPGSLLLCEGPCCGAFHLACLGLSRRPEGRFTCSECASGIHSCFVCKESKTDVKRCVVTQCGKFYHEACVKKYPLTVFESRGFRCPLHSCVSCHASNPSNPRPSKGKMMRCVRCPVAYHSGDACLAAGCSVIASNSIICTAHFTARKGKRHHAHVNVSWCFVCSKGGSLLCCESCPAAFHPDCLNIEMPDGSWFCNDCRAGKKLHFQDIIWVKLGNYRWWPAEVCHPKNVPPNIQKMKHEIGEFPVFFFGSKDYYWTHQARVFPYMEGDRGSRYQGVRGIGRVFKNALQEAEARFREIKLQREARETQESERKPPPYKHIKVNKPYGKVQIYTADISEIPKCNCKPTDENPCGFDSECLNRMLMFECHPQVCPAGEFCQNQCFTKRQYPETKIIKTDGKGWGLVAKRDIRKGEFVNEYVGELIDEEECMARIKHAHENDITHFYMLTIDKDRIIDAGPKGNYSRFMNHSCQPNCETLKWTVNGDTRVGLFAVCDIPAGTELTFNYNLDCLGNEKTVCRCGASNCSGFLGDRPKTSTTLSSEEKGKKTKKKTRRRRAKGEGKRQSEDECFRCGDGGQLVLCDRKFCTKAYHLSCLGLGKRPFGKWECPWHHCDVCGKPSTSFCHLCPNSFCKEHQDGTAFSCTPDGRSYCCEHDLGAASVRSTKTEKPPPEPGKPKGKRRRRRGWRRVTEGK
# UniProt Q15738: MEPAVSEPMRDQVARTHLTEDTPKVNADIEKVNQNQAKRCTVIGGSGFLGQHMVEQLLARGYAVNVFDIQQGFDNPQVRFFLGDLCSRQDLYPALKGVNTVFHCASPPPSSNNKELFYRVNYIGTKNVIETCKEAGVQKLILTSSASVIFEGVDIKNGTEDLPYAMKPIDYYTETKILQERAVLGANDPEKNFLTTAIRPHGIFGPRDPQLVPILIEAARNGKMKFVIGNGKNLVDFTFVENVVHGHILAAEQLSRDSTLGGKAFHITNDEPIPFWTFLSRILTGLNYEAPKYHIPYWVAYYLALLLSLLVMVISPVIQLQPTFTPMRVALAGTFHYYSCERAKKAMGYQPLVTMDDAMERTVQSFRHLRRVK
# The list shows a part of the results.
# Compound: CC1Cc2ccccc2N1C(=O)C1CCCN(C1)C(=O)CCl (mixture of isomers) [TRIM25 ligand 11 (diastereomer mixture)]
# Test: probe-labelled cysteine peptide fold change vs DMSO (competition) (log2 fold change); higher = less target engagement (more negative = stronger competition)
# Settings: THP-1, incubation time: 4 h
# 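Also: competitive chemoproteomic profiling in live THP-1 cells with an iodoacetamide desthiobiotin (IA-DTB) probe, comparing probe-labelled peptide intensities in compound-treated cells against DMSO-treated controls.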
Target,probe-labelled cysteine peptide fold change (10 µM),probe-labelled cysteine peptide fold change (50 µM)
NT5C3A_Q9H0P0_73_IKNPTRVEEIICGLIK (UniProt Q9H0P0),-0.102,-0.238
NOP56_O00567_384_IDCFSEVPTSVFGEK (UniProt O00567),0.0252,-0.0137
NOL10_Q9BSC4_55_IELIQDFEMPTVCTTIK (UniProt Q9BSC4),0.065,-0.00413
NOCT_Q9UK39_165_DNFVQCPVEALK (UniProt Q9UK39),-0.0764,-0.0473
NOP56_O00567_211_IINDNATYCR (UniProt O00567),0.0968,0.113
NPTN_Q9Y639_259_NEGQDATMYCK (UniProt Q9Y639),-0.0675,-0.0536
NOCT_Q9UK39_281_QFCIAVTHLK (UniProt Q9UK39),-0.0478,0.216
NPLOC4_Q8TAT6_355_HPNMCR (UniProt Q8TAT6),-0.0774,-0.041
NMNAT3_Q96T66_12_IPVVLLACGSFNPITNMHLR (UniProt Q96T66),0.124,-0.224
NOL4L_Q96MY1_148_TEVSGCPEDLTVGR (UniProt Q96MY1),-0.279,-0.0704
NSD1_Q96L73_1312_CEEESLLAR (UniProt Q96L73),-0.085,-0.0853
NOL6_Q9H6R4_633_LIPHQVVTHLLALHADIPETCVHYVGGPLDALIQGLK (UniProt Q9H6R4),0.0255,0.169
NOTCH2_Q04721_364_VASFSCMCPEGK (UniProt Q04721),-0.0149,-0.178
NOL7_Q9UMY1_149_KNEDCEK (UniProt Q9UMY1),-0.0444,-0.0217
NLRX1_Q86UT6_767_LGLQLNSLGPEACK (UniProt Q86UT6),0.0211,-0.0473
NOL9_Q5SY16_581_ITHSDVAPTHILYAVNASWVGLCK (UniProt Q5SY16),0.0829,0.1
NSF_P46459_334_LGANSGLHIIIFDEIDAICK (UniProt P46459),0.0447,-0.14
NSUN5P1_Q3KNT7_77_ALCHALTFPSLQR (UniProt Q3KNT7),-0.17,-0.0172
NMT1_P30419_294_VHLEGIFQAVYTAGVVLPKPVGTCR (UniProt P30419),-0.136,0.128
NLRX1_Q86UT6_259_LAGTGLCSDPEEPQEPAAIIVNLLR (UniProt Q86UT6),0.274,-0.746
NOP2_P46087_393_ILDMCCAPGGK (UniProt P46087),-0.0381,-0.0998

Target,probe-labelled cysteine peptide fold change (10 µM),probe-labelled cysteine peptide fold change (50 µM)
NOTCH2_Q04721_264_NIDDCPNHR (UniProt Q04721),0.0592,0.0855
NOP56_O00567_52_LVAFCPFASSQVALENANAVSEGVVHEDLR (UniProt O00567),0.279,-0.116
NPTX1_Q15818_89_CESQSTLDPGAGEAR (UniProt Q15818),-0.269,0.111
NSD1_Q96L73_2077_CGAPNCSGFLGVRPK (UniProt Q96L73),-0.0849,0.0745
NOL6_Q9H6R4_1034_QAVDSPAASFCR (UniProt Q9H6R4),0.202,-0.0969
NRDC_O43847_690_IVNTPQGCLWYK (UniProt O43847),0.00502,0.182
NPEPL1_Q8NDH3_311_DNLHAVFCLAENSVGPNATRPDDIHLLYSGK (UniProt Q8NDH3),-0.00606,0.0858
NSD1_Q96L73_715_QKPLISNSHTDHLMGCTK (UniProt Q96L73),0.0149,-0.355
NKIRAS2_Q9NYR9_10_VVVCGQASVGK (UniProt Q9NYR9),0.0468,0.0556
NOP10_Q9NPE3_28_KFDPMGQQTCSAHPAR (UniProt Q9NPE3),-0.0253,-0.279
NME1_P15531_145_EIGLWFHPEELVDYTSCAQNWIYE (UniProt P15531),0.0437,-0.154
NPHP4_O75161_56_QGVLEVLSEVECHLR (UniProt O75161),0.245,0.0593
NLRX1_Q86UT6_735_HALDEVNLASCQLDPAGLR (UniProt Q86UT6),0.0608,-0.142
NPC2_P61916_93_AVVHGILMGVPVPFPIPEPDGCK (UniProt P61916),-0.0636,-0.131
NOP16_Q9Y3C1_36_IECSHIR (UniProt Q9Y3C1),0.0394,-0.165
NMNAT3_Q96T66_134_LLCGADVLK (UniProt Q96T66),0.0413,0.0333
NME7_Q9Y5B8_242_FTNCTCCIVKPHAVSEGLLGK (UniProt Q9Y5B8),0.102,0.243
NSD2_O96028_1102_KGEFVNEYVGELIDEEECMAR (UniProt O96028),-0.163,-0.0932
NOL6_Q9H6R4_777_LAELLTQQHGLQCR (UniProt Q9H6R4),0.0373,0.134
NPTN_Q9Y639_218_AEDSGEYHCVYHFVSAPK (UniProt Q9Y639),-0.0949,-0.0424
NSD1_Q96L73_1689_ILASNSIICPNHFTPR (UniProt Q96L73),0.00705,-0.17

Target,probe-labelled cysteine peptide fold change (10 µM),probe-labelled cysteine peptide fold change (50 µM)
NNT_Q13423_936_EANSIIITPGYGLCAAK (UniProt Q13423),-0.251,0.251
NOTCH2_Q04721_427_GADCTEDVDECAMANSNPCEHAGK (UniProt Q04721),0.107,-0.0126
NSDHL_Q15738_40_RCTVIGGSGFLGQHMVEQLLAR (UniProt Q15738),-0.231,0.024
NOM1_Q5C9Z4_65_LAVEEFVHATSEGEAPGGCEGR (UniProt Q5C9Z4),-0.014,-0.344
NLN_Q9BYT8_199_MSELCIDFNK (UniProt Q9BYT8),0.0765,-0.12
NR2C2AP_Q86WQ0_7_THSLVCPETVSR (UniProt Q86WQ0),0.106,-0.0117
NRBP2_Q9NSY0_34_EREDESEDESDILEESPCGR (UniProt Q9NSY0),0.125,0.0222
NOTCH1_P46531_1425_FNGLLCHILDYSFGGGAGR (UniProt P46531),-0.00448,0.0732
NMD3_Q96D46_321_QLEEFIVMECSIVQDIK (UniProt Q96D46),0.325,0.154
NLN_Q9BYT8_153_IVHLQETCDLGK (UniProt Q9BYT8),-0.0417,-0.0681
NSMCE4A_Q9NXX6_226_THTFHFLLGSIYGECPVPKPR (UniProt Q9NXX6),-0.243,-0.313
NOP58_Q9Y2X3_205_IISDNLTYCK (UniProt Q9Y2X3),0.063,0.067
NOC4L_Q9BVI4_509_KGPEPVPLEFIPAQGLLGRPGELCAQHFTLS (UniProt Q9BVI4),0.0196,-0.199
NOCT_Q9UK39_322_IPLIVCGDFNAEPTEEVYK (UniProt Q9UK39),-0.203,-0.0146
NOB1_Q9ULX3_285+288_VFCSHCGNK (UniProt Q9ULX3),-0.0482,0.0666
NSD2_O96028_743_FYHEACVK (UniProt O96028),-0.119,0.0514
NPC1_O15118_177_ALGLLCGK (UniProt O15118),0.114,-0.0232
NT5C3B_Q969T7_56_CPSSYNILDNSK (UniProt Q969T7),0.035,0.00944
NMNAT1_Q9HAN9_111_LEASDCDHQQNSPTLERPGR (UniProt Q9HAN9),-0.0255,-0.347
NME7_Q9Y5B8_356_IQNAVHCTDLPEDGLLEVQYFFK (UniProt Q9Y5B8),0.0466,-0.0398
NSDHL_Q15738_86_FFLGDLCSR (UniProt Q15738),0.0494,-0.19

Target,probe-labelled cysteine peptide fold change (10 µM),probe-labelled cysteine peptide fold change (50 µM)
NLRP7_Q8WX94_540_ELEATFGCR (UniProt Q8WX94),-0.0769,-0.083
NOL9_Q5SY16_219_WSMQNFSPQCSIVLLEHLK (UniProt Q5SY16),0.0873,0.0078
NSMAF_Q92636_803_EGTVNIWDLTTATLMHQIPCHSGIVCDTAFSPDSR (UniProt Q92636),0.146,0.234
NOP56_O00567_112_IGAAIQEELGYNCQTGGVIAEILR (UniProt O00567),0.0784,-0.0484
NSD2_O96028_899_WWPAEVCHPK (UniProt O96028),0.0454,0.00563
NOL9_Q5SY16_379_MVYYGKPSCK (UniProt Q5SY16),-0.221,-0.163
NLRX1_Q86UT6_779_DLRDLLLHDQCQITTLR (UniProt Q86UT6),-0.173,-0.114
NOTCH2_Q04721_1966_LAVEGMVAELINCQADVNAVDDHGK (UniProt Q04721),0.268,0.124
NSD1_Q96L73_1185_ENSECAFR (UniProt Q96L73),0.151,0.105
NOP58_Q9Y2X3_106_LNLSCIHSPVVNELMR (UniProt Q9Y2X3),0.0103,0.12
NSL1_Q96IY1_136_ILECVIK (UniProt Q96IY1),0.0522,0.0516
NPM3_O75607_41_VPAPVTMDSFFFGCELSGHTR (UniProt O75607),-0.197,0.0189
NT5C_Q8TCD5_166_GQEETPSWEHILFTCCHNR (UniProt Q8TCD5),-0.15,-0.107
NSUN2_Q08J23_221_RCYLLVHQAK (UniProt Q08J23),0.0106,0.24
NIT2_Q9NQR4_97_LYNTCAVFGPDGTLLAK (UniProt Q9NQR4),0.0749,0.139
NSD2_O96028_207_ESCPNTGR (UniProt O96028),-0.0691,-0.102
NRF1_Q16656_229_ESCKPIWWPEDIPWANVR (UniProt Q16656),-0.0243,-0.0561
NPLOC4_Q8TAT6_188_FVALENISCK (UniProt Q8TAT6),-0.00228,-0.0644
NSD2_O96028_594_NLSDACK (UniProt O96028),0.105,-0.0321
NSMAF_Q92636_721_ICWHDNR (UniProt Q92636),0.0304,0.0732
NPEPL1_Q8NDH3_357_LVLADGVSYACK (UniProt Q8NDH3),-0.118,-0.0773
